PubChem BioAssay (NCATS)
The inconclusive results got no clear call from the source; some entries with a clear call stand among them for comparison. For some of these results: Potencies beside an inconclusive call are fits to weak or partial responses and may not hold up. Active and inactive are the calls of the source. Unless noted, calls come from the whole dose curve; as a rule, active = well fitted curve in the direction sought with a large enough effect; inconclusive = small, poorly fitted or top-dose-only effect, or another doubt; inactive = no such curve, though single readings can be large; an effect the other way counts as inactive or inconclusive.

Experiments:
[1] = Quantitative High-Throughput drug screen in 47 multiple myeloma cell lines against the NCATS MIPE library collection: VP6_DJ cell viability assay (AID 1919867); note: nearly all actives have a fitted effect of over 40% in size; note: potency is the fitted concentration of half-maximal effect
How it was run: (§1)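 Myeloma cells (500/well) treated with MIPE 4.0 compounds for 48 h at 37 °C, 5% CO2. Viability read as ATP via CellTiter-Glo luminescence after 5 min at RT; DMSO-only wells = 100%, media-only = 0% viability.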

[2] = Quantitative High-Throughput drug screen in 47 multiple myeloma cell lines against the NCATS MIPE library collection: PE2_PLB cell viability assay (AID 1919869); conditions: PE2_PLB myeloma cells viability, ATP luminescence, 48 h; viability (% of control): at 45.8 µM (top of the series); note: nearly all actives have a fitted effect of over 35% in size; note: potency is the fitted concentration of half-maximal effect
How it was run: as §1

[3] = Quantitative High-Throughput drug screen in 47 multiple myeloma cell lines against the NCATS MIPE library collection: PCM6_Riken cell viability assay (AID 1919870); note: nearly all actives have a fitted effect of over 30% in size; note: potency is the fitted concentration of half-maximal effect
How it was run: as §1

[4] = Quantitative High-Throughput drug screen in 47 multiple myeloma cell lines against the NCATS MIPE library collection: RPMI8226_ATCC cell viability assay (AID 1919871); conditions: RPMI8226 myeloma viability, CellTiter-Glo ATP luminescence, 48 h; viability (% of control): at 45.8 µM (top of the series); note: nearly all actives have a fitted effect of over 30% in size; note: potency is the fitted concentration of half-maximal effect
How it was run: as §1

[5] = Quantitative High-Throughput drug screen in 47 multiple myeloma cell lines against the NCATS MIPE library collection: OPM2_DSMZ cell viability assay (AID 1919872); note: potency is the fitted concentration of half-maximal effect; nearly all actives have a fitted effect of over 30% in size
How it was run: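 Luminescent ATP measurement with CellTiter-Glo gives viability, scaled between DMSO-only wells (100%) and media-only wells (0%). Cells, 500 per well, faced library compounds for 48 hours at 37C.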

[6] = Quantitative High-Throughput drug screen in 47 multiple myeloma cell lines against the NCATS MIPE library collection: KMS11_JCRBsus cell viability assay (AID 1919873); note: nearly all actives have a fitted effect of over 50% in size; note: potency is the fitted concentration of half-maximal effect
How it was run: as §1

[7] = qHTS profiling for inhibitors of Plasmodium falciparum proliferation (AID 504749); note: nearly all actives have a fitted effect of over 60% in size; conditions: P. falciparum in erythrocytes, SYBR Green DNA, 72 h; Potency: parasite line B unless noted; series mostly up to 28.7 µM
How it was run: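 P. falciparum-infected erythrocytes (0.3% parasitemia, 2.5% hematocrit final) were exposed to compounds for 72 h at 37 C in 5% CO2, then lysed with SYBR Green buffer overnight at room temperature; parasite DNA fluorescence was normalized to artemisinin and DMSO controls.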

[8] = Quantitative High-Throughput drug screen in 47 multiple myeloma cell lines against the NCATS MIPE library collection: UTMC2_PLB cell viability assay (AID 1919868); conditions: CellTiter-Glo ATP luminescence, 48 h; series mostly up to 45.8 µM; note: nearly all actives have a fitted effect of over 55% in size; note: potency is the fitted concentration of half-maximal effect
How it was run: as §1

[9] = qHTS for identification of novel therapeutic agents for treatment of microphthalmiaassociated transcription factor (MiT) renal cell carcinoma (RCC) (AID 1963991; calls by dose curve; note: potency is the fitted concentration of half-maximal effect); conditions: TFE3-RCC UOK109 viability, CellTiter-Glo, 48 h; active = Z-AUC below -0.8 in all three lines
How it was run: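 Three TFE3-fusion RCC lines (UOK109, UOK124, UOK145), 500 cells/well in complete medium, were treated with MIPE 4.0 compounds for 48 hours at 37 C. Viability was by CellTiter-Glo luminescence, normalized to DMSO (100%) and empty wells (0%); curves fitted over 11 concentrations.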

[10] = Quantitative High-Throughput drug screen in 47 multiple myeloma cell lines against the NCATS MIPE library collection: KMS28BM_JCRB cell viability assay (AID 1919874); conditions: CellTiter-Glo ATP, 48 h; series mostly up to 45.8 µM; note: potency is the fitted concentration of half-maximal effect; nearly all actives have a fitted effect of over 35% in size
How it was run: as §1

Q: Which results are given for `CCOCC(O)COc1ccc(NC(=O)CC[S+](C)C)cc1` (stereo unspecified)?
A: Potency [1]: inactive; Potency [2]: inactive; Potency [3]: inconclusive: 2.35 µM [cytotoxic, partial curve, poor fit]; Potency [4]: inactive; Potency [5]: inconclusive: 0.0132 µM [rising, full curve, poor fit]; Potency [6]: inconclusive: 0.0066 µM [rising, full curve, poor fit]; Potency [7]: inactive

Q: For `COC(=O)[C@H](c1ccccc1Cl)N1CCc2sccc2C1`, which Potency [1] is on record?
A: inconclusive: 26.4 µM [cytotoxic, single point]

Q: What about the Potency [8] of the same compound?
A: inactive

Q: What about the Potency [6] of the same compound?
A: inactive

Q: With `C[C@@H]1[C@H](C)CC[C@]2(C(=O)O)CC[C@]3(C)C(=CC[C@@H]4[C@@]5(C)CC[C@H](O)C(C)(C)[C@H]5CC[C@]43C)[C@@H]12` as the compound, how does the Potency [1] read?
A: inconclusive: 7.62 µM [cytotoxic, full curve, poor fit]

Q: And the Potency [8]?
A: inconclusive: 6.79 µM [cytotoxic, full curve, poor fit]

Q: And the Potency [6]?
A: inactive

Q: And the Potency [9]?
A: inconclusive: 0.429 µM

Q: For `Cn1cnc(-c2cc3nccc(Oc4ccc(NC(=S)NC(=O)Cc5ccccc5)cc4F)c3s2)c1`, which Potency [1] is on record?
A: inconclusive: 16.6 µM [cytotoxic, partial curve, poor fit]

Q: What about the Potency [3] of the same compound?
A: inconclusive: 20.9 µM [cytotoxic, partial curve]

Q: What about the Potency [4] of the same compound?
A: inconclusive: 18.7 µM [cytotoxic, partial curve]

Q: And the Potency [5]?
A: inconclusive: 26.4 µM [cytotoxic, single point]

Q: What about the Potency [9] of the same compound?
A: inconclusive: 23.5 µM [falling, partial curve, poor fit]

Q: With `CCN(CCO)CCCOc1ccc2c(Nc3cc(CC(=O)Nc4cccc(F)c4)[nH]n3)ncnc2c1` as the compound, how does the Potency [1] read?
A: inactive

Q: What about the Potency [2] of the same compound?
A: inactive

Q: What about the Potency [10] of the same compound?
A: active: 0.0372 µM

Q: Which results are given for `CC1(C)CC(=O)c2c(C(F)(F)F)nn(-c3ccc(C(N)=O)c(NC4CCC(OC(=O)CN)CC4)c3)c2C1` (stereo unspecified)?
A: Potency [1]: active: 0.166 µM; Potency [4]: inconclusive: 0.187 µM [cytotoxic, full curve]; Potency [5]: active: 0.296 µM; Potency [6]: active: 0.118 µM; Potency [9]: inconclusive: 0.526 µM [falling, full curve]

Q: Which results are given for `CC1=C(C(=O)Nc2cc3cn[nH]c3cc2F)C(c2ccc(C(F)(F)F)cc2)CC(=O)N1` (stereo unspecified)?
A: Potency [1]: inconclusive: 16.6 µM [cytotoxic, partial curve, poor fit]; Potency [4]: inactive; Potency [6]: inactive

Q: With `NC(=NCCCCCCN=C(N)N=C(N)Nc1ccc(Cl)cc1)N=C(N)Nc1ccc(Cl)cc1` as the compound, how does the Potency [1] read?
A: active: 2.35 µM

Q: What about the Potency [9] of the same compound?
A: inconclusive: 16.6 µM [falling, partial curve]

Q: For `C1=CCOCc2cc(ccc2OCCN2CCCC2)Nc2nccc(n2)-c2cccc(c2)OCC1`, which Potency [1] is on record?
A: active: 1.05 µM

Q: What about the Potency [3] of the same compound?
A: active: 0.935 µM

Q: What about the Potency [4] of the same compound?
A: active: 5.9 µM

Q: And the Potency [9]?
A: inconclusive: 10.5 µM [falling, full curve]

Q: With `COc1ccc(OC)c(-c2nnc3ccc(-c4ccc(OC)c(O[C@@H]5CCOC5)c4)nn23)c1` as the compound, how does the Potency [1] read?
A: active: 6.62 µM

Q: What about the Potency [2] of the same compound?
A: active: 8.33 µM

Q: And the Potency [9]?
A: inconclusive: 20.9 µM [falling, partial curve]

Q: Which results are given for `C=CC[C@@H]1C=C(C)C[C@H](C)C[C@H](OC)[C@H]2O[C@@](O)(C(=O)C(=O)N3CCCC[C@H]3C(=O)O[C@H](C(C)=C[C@@H]3CC[C@H](O)[C@H](OC)C3)[C@@H](C)[C@@H](O)CC1=O)[C@@H](C)C[C@@H]2OC`?
A: Potency [1]: active: 0.833 µM; Potency [5]: inconclusive: 1.66 µM [cytotoxic, full curve, poor fit]; Potency [9]: inconclusive: 6.62 µM

Q: With `COc1cc2nc(N3CCN(C(=O)C4COc5ccccc5O4)CC3)nc(N)c2cc1OC` (stereo unspecified) as the compound, how does the Potency [1] read?
A: inconclusive: 18.7 µM [cytotoxic, partial curve, poor fit]

Q: And the Potency [4]?
A: active: 16.6 µM

Q: What about the Potency [10] of the same compound?
A: active: 16.6 µM

Q: What about the Potency [9] of the same compound?
A: inconclusive: 13.2 µM [falling, partial curve]

Q: Which Potency [1] does the source give for `CO[C@H]1/C=C\O[C@@]2(C)Oc3c(C)c(O)c4c(O)c(c(C=NN5CCN(C6CCCC6)CC5)c(O)c4c3C2=O)NC(=O)C(C)=CC=C[C@H](C)[C@H](O)[C@@H](C)[C@@H](O)[C@@H](C)[C@H](OC(C)=O)[C@H]1C` here?
A: inconclusive: 0.132 µM [cytotoxic, full curve]

Q: And the Potency [4]?
A: active: 1.18 µM

Q: And the Potency [6]?
A: inconclusive: 1.32 µM [cytotoxic, full curve]

Q: What about the Potency [10] of the same compound?
A: inconclusive: 0.0235 µM [cytotoxic, full curve]

Q: And the Potency [9]?
A: active: 0.105 µM

Q: Which Potency [1] does the source give for `CC(=O)NC[C@H]1CN(c2ccc(N3CCOCC3)c(F)c2)C(=O)O1` here?
A: inactive

Q: And the Potency [3]?
A: inactive

Q: And the Potency [4]?
A: inconclusive: 3.72 µM [cytotoxic, full curve, poor fit]

Q: What about the Potency [6] of the same compound?
A: inconclusive: 5.9 µM [cytotoxic, partial curve, poor fit]

Q: What does the source list for `CCc1nc(-c2cccc(C)c2)c(-c2ccnc(NC(=O)c3ccccc3)c2)s1`?
A: Potency [1]: inconclusive: 11.8 µM [cytotoxic, partial curve, poor fit]; Potency [3]: inconclusive: 18.7 µM [cytotoxic, partial curve]; Potency [4]: inconclusive: 20.9 µM [cytotoxic, partial curve]; Potency [5]: active: 18.7 µM; Potency [10]: inconclusive: 18.7 µM [cytotoxic, partial curve, poor fit]; Potency [9]: inconclusive: 16.6 µM [falling, partial curve, poor fit]
